Reference: article PMC12408856
Results are given in words; binding and its absence hold for the method and conditions named. In cells and extracts the contact can be indirect. Some binding calls cover weakened binding; strength is not graded here.

Biological target: T1, translocase of the inner mitochondrial membrane (TIMM) 8A (human (endogenous in A549)) (UniProt O60220)
T1 sequence: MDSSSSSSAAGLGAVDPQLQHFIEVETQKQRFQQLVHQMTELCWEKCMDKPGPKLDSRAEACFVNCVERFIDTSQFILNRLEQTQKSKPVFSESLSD
Assay: co-IP; endogenous proteins; 8 x 10^6 A549 cells lysed in RIPA buffer with protease inhibitor; antibodies at 4°C overnight; Protein A/G Agarose at 4°C about 4 h; three PBS washes; immunoblot

- binding: binds
B1: translocase of the inner mitochondrial membrane 13 (protein, UniProt Q9Y5L4 1-95)
chain: MEGGFGSDFGGSGSGKLDPGLIMEQVKVQIAVANAQELLQRMTDKCFRKCIGKPGGSLDNSEQKCIAMCMDRYMDAWNTVSRAYNSRLQRERANM
